Results reported in patent US20220389057A1, “ENDOCYTOSIS ROUTING SEQUENCE PEPTIDE FOR CELL DELIVERY SYSTEMS” (SZEGEDI TUDOMÁNYEGYETEM, priority 2019, published 2022).

Experiment: Isothermal titration calorimetry (ITC), binding to ganglioside GM1
Conditions: stoichiometry; for n1: first binding step, Table 1, pH 7.2 phosphate buffer, 35° C., GM1:DPC 1:5; for n2: second binding step, Table 1, pH 7.2, 35° C.
Procedure: Isothermal calorimetric titrations (ITC) were performed with a MicroCal VP-ITC microcalorimeter in pH 7.2 phosphate buffer solution. In individual titrations, 15 μL GM1:DPC 1:5 containing solution was injected from the computer-controlled […] microsyringe at intervals of 300 s into the ligand solution, dissolved in the same buffer as the GM1. All measurements were carried out at 35° C. The ligands concentration in the cell was 15 μM, and the concentration of GM1 in the syringe was 300 μM. Control experiments were performed by injecting GM1 into the cell containing buffer but no ligands Experiments were repeated twice. The experimental data were fitted to the one binding site or two independent sites model (adjustable parameters: ΔHb1, Kd1, n1 and ΔHb2, Kd2, n2) using a nonlinear least-squares procedure. Errors were calculated by jackknife resampling.
Binding of Trp-Tyr-Lys-Tyr-Trp (WYKYW) and analogues to various ganglioside derivatives was tested as described under “Isothermal Titration calorimetry” to explore the specificity of the interaction between WYKYW and GM1. Affinity data for binding between WYKYW and various ganglioside derivatives (FIG. 1), and for binding between various mutated sequences of WYKYW and GM1 (Table 1) were obtained by Isothermal Titration calorimetry as described in Example 1 (General methods).

Row | Compound | n1 | n2
1 | WYKAW [Ala point mutation of WYKYW] | 1.0 | –
2 | WYKYA [Ala point mutation of WYKYW] | 1.0 | –
3 | NCCCC[C@H](NC(=O)[C@@H](Cc1ccc(O)cc1)NC(=O)[C@@H](N)Cc1c[nH]c2ccccc12)C(=O)N[C@@H](Cc1ccc(O)cc1)C(=O)N[C@@H](Cc1c[nH]c2ccccc12)C(N)=O [WyKYW] | 2.05 | –
4 | WAKYW [Ala point mutation of WYKYW] | 1.0 | –
5 | NCCCC[C@@H](NC(=O)[C@H](Cc1ccc(O)cc1)NC(=O)[C@@H](N)Cc1c[nH]c2ccccc12)C(=O)N[C@@H](Cc1ccc(O)cc1)C(=O)N[C@@H](Cc1c[nH]c2ccccc12)C(N)=O [WYkYW] | 1.86 | –
6 | NCCCC[C@H](NC(=O)[C@H](Cc1ccc(O)cc1)NC(=O)[C@@H](N)Cc1c[nH]c2ccccc12)C(=O)N[C@@H](Cc1ccc(O)cc1)C(=O)N[C@H](Cc1c[nH]c2ccccc12)C(N)=O [WYKYw] | 1.24 | –
7 | Trp-Tyr-Lys-β^3-homo-Tyr-Trp [WYKbYW] | 0.49 | 1.80
8 | NCCCC[C@H](NC(=O)[C@H](Cc1ccc(O)cc1)NC(=O)[C@H](N)Cc1c[nH]c2ccccc12)C(=O)N[C@@H](Cc1ccc(O)cc1)C(=O)N[C@@H](Cc1c[nH]c2ccccc12)C(N)=O [wYKYW] | 1.81 | –
9 | Trp-β^3-homo-Tyr-Lys-Tyr-Trp [WbYKYW] | 0.51 | 1.72
10 | WYAYW [Ala point mutation of WYKYW] | 1.3 | –
11 | β^3-homo-Trp-Tyr-Lys-Tyr-Trp [bWYKYW] | 0.52 | 1.85
12 | NCCCC[C@H](NC(=O)[C@H](Cc1ccc(O)cc1)NC(=O)[C@@H](N)Cc1c[nH]c2ccccc12)C(=O)N[C@H](Cc1ccc(O)cc1)C(=O)N[C@@H](Cc1c[nH]c2ccccc12)C(N)=O [WYKyW] | 0.93 | –
